For at least one entry, the source does not settle the construct or the ends of the probe. For part of these data: Where a protein sequence is shown, tags need not be part of it.
Columns and labels:
[1] = biological target: ecMutS (Escherichia coli) (UniProt P23909); test: EMSA; conditions: 1 mM ATPgS, 5 mM MgCl2, N6-methyl-dA at position 16 of strand 1 (Gm6ATC), MutS EMSA: 5 nM DNA, 20 mM HEPES-KOH pH 7.9, 5 mM MgCl2, 120 mM KCl, 0.5 mg/mL BSA, 1 mM nucleotide, 37 C 15 min, recombinant protein
[2] = biological target: T1, rsMutS (Rhodobacter sphaeroides strain 2.4.1) (UniProt Q3IYI5); test: EMSA; conditions: 1 mM ATPgS, 5 mM MgCl2, N6-methyl-dA at position 16 of strand 1 (Gm6ATC), MutS EMSA: 5 nM DNA, 20 mM HEPES-KOH pH 7.9, 5 mM MgCl2, 120 mM KCl, 0.5 mg/mL BSA, 1 mM nucleotide, 37 C 15 min, recombinant protein, protein details: N-terminal His6 (pET15b)
T1 sequence (looked up, limits assumed): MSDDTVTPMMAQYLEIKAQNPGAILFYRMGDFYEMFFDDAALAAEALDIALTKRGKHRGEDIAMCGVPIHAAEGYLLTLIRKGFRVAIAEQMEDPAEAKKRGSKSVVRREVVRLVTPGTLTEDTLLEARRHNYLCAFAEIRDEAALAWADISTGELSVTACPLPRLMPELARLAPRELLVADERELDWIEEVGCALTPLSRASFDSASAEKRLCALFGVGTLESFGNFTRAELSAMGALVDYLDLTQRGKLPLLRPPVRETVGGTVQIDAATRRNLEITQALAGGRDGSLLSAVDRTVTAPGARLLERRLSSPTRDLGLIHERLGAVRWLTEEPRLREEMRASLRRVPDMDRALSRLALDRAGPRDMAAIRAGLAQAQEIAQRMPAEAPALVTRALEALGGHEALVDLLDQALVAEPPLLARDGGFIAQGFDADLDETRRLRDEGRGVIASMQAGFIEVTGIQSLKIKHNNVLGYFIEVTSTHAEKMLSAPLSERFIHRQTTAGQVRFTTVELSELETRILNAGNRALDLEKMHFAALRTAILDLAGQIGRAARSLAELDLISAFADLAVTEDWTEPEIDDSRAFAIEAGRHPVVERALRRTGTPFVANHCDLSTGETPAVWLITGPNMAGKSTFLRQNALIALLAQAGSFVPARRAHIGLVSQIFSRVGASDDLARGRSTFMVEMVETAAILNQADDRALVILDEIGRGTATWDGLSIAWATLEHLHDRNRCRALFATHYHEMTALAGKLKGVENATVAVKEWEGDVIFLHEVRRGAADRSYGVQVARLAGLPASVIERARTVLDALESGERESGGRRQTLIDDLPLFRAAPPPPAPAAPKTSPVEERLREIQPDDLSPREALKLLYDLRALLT

Sequences of proteins named here, by UniProt entry; tags and fusion partners are left off. A change or cut given only in a name is not applied to a line headed by its entry.
UniProt P23909: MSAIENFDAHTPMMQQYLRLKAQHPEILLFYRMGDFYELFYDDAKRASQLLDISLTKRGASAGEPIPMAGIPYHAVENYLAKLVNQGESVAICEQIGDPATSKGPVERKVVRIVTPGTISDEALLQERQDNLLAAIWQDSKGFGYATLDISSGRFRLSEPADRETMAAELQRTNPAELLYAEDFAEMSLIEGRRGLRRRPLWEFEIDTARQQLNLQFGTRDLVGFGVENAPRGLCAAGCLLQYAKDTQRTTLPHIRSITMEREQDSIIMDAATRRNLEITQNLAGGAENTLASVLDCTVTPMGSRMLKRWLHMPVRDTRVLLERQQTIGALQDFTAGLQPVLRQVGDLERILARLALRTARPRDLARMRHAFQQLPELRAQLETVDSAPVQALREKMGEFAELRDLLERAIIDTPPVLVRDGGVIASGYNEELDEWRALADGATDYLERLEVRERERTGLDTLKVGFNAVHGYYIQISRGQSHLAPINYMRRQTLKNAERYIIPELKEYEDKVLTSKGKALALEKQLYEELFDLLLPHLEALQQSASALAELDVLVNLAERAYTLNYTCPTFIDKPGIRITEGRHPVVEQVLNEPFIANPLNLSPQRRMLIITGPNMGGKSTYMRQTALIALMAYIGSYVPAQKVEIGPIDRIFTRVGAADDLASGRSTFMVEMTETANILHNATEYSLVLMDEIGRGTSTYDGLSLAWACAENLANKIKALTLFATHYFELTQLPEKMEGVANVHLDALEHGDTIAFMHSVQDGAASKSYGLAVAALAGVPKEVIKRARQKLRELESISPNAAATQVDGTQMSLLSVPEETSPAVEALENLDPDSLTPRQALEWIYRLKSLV

[3] = label: 3'-TAMRA on strand 2 (76T)
[4] = label: 3'-TAMRA on strand 2 (95(GT)8)

## TCCTTTCGCGCTTGGATCCTATGAGCGTTACTCGAGCATATGGCTCAGCTGCCAAGCACCAGTGTCAGCGTCCTAT (double strand) [76/76-A/T]
[1]; [3]
  Kd: 150 nM
[2]; [3]
  Kd: 470 nM

## TCCTTTCGCGCTTGGATCCTATGAGCGTTACTCGAGCATATGGCTCAGCTGCCAAGCACCAGTGTCAGCGTCCTAT / ATAGGACGCTGACACTGGTGCTTGGCAGCTGAGCCATATTTGTGTGTGTGTGTGTGTTGCTCGAGTAACGCTCATAGGATCCAAGCGCGAAAGGA [76/95(GT)8-A/T]
[1]; [4]
  Kd: 80 nM
[2]; [4]
  Kd: 190 nM

## TCCTTTCGCGCTTGGATCCTATGAGCGTTACTCGAGCATATGGCTCAGCTGCCAGGCACCAGTGTCAGCGTCCTAT / ATAGGACGCTGACACTGGTGCTTGGCAGCTGAGCCATATGCTCGAGTAACGCTCATAGGATCCAAGCGCGAAAGGA [76/76-G/T]
[1]; [3]
  Kd: 70 nM
[2]; [3]
  Kd: 360 nM
